# From the supplement of paper PMC8728848
# The list shows a part of the results.
# What was measured:
# Experiment in all cases: glycan array binding signal (z-score within array); higher = stronger binding
# Details in all cases: glycan notation: IUPAC condensed, linker removed
# [1] = molecular target: Gal(b1-3)GlcNAc(b1-2)Man(a1-3)[Gal(b1-3)GlcNAc(b1-2)Man(a1-6)]Man(b1-4)GlcNAc(b1-4)[Fuc(a1-6)]GlcNAc
# How it was run: (§1)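 The binding signal is a Z-score computed within each array and averaged over linkers. Arrays of the same protein sequence at different concentrations or buffers were also averaged together. Data originate from 3228 arrays in the Consortium for Functional Glycomics database, kept only where the protein sequence was available.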
# [2] = molecular target: Gal(b1-3)GlcNAc(b1-2)Man(a1-3)[GlcNAc(b1-4)][Gal(b1-3)GlcNAc(b1-2)Man(a1-6)]Man(b1-4)GlcNAc(b1-4)GlcNAc
# How it was run: as §1
# [3] = molecular target: Gal(b1-3)GlcNAc(b1-2)[Gal(b1-3)GlcNAc(b1-6)]Man(a1-6)[Gal(b1-3)GlcNAc(b1-2)Man(a1-3)]Man(b1-4)GlcNAc(b1-4)GlcNAc
# How it was run: as §1
# [4] = molecular target: Gal(b1-3)GlcNAc(b1-3)Gal(b1-3)GlcNAc
# How it was run: as §1
# [5] = molecular target: Gal(b1-3)GlcNAc(b1-3)Gal(b1-4)Glc
# How it was run: as §1
# [6] = molecular target: Gal(b1-3)GlcNAc(b1-3)Gal(b1-4)GlcNAc
# How it was run: as §1
# [7] = molecular target: Gal(b1-3)GlcNAc(b1-3)Gal(b1-4)GlcNAc(b1-2)Man(a1-3)[Gal(b1-3)GlcNAc(b1-3)Gal(b1-4)GlcNAc(b1-2)Man(a1-6)]Man(b1-4)GlcNAc(b1-4)GlcNAc
# How it was run: as §1
# [8] = molecular target: Gal(b1-3)GlcNAc(b1-3)Gal(b1-4)GlcNAc(b1-2)[Gal(b1-3)GlcNAc(b1-3)Gal(b1-4)GlcNAc(b1-6)]Man(a1-6)[Gal(b1-3)GlcNAc(b1-3)Gal(b1-4)GlcNAc(b1-2)Man(a1-3)]Man(b1-4)GlcNAc(b1-4)[Fuc(a1-6)]GlcNAc
# How it was run: as §1
# [9] = molecular target: Gal(b1-3)GlcNAc(b1-3)Gal(b1-4)GlcNAc(b1-3)Gal(b1-4)GlcNAc(b1-2)[Gal(b1-3)GlcNAc(b1-3)Gal(b1-4)GlcNAc(b1-3)Gal(b1-4)GlcNAc(b1-6)]Man(a1-6)[Gal(b1-3)GlcNAc(b1-3)Gal(b1-4)GlcNAc(b1-3)Gal(b1-4)GlcNAc(b1-2)Man(a1-3)]Man(b1-4)GlcNAc(b1-4)[Fuc(a1-6)]GlcNAc
# How it was run: as §1
# [10] = molecular target: Gal(b1-3)GlcNAc(b1-3)Gal(b1-4)GlcNAc(b1-6)[Gal(b1-3)GlcNAc(b1-3)]Gal(b1-4)Glc
# How it was run: as §1
# [11] = molecular target: Gal(b1-3)GlcNAc(b1-3)Gal(b1-4)[Fuc(a1-3)]GlcNAc
# How it was run: as §1
# [12] = molecular target: Gal(b1-3)GlcNAc(b1-3)Gal(b1-4)[Fuc(a1-3)]GlcNAc(b1-6)[Gal(b1-3)GlcNAc(b1-3)]Gal(b1-4)Glc
# How it was run: as §1
# [13] = molecular target: Gal(b1-3)GlcNAc(b1-3)GalNAc
# How it was run: as §1
# [14] = molecular target: Gal(b1-3)GlcNAc(b1-6)Gal(b1-4)GlcNAc
# How it was run: as §1
# [15] = molecular target: Gal(b1-3)GlcNAc(b1-6)GalNAc
# How it was run: as §1
# [16] = molecular target: Gal(b1-3)GlcNAc(b1-6)[Gal(b1-3)]GalNAc
# How it was run: as §1
# [17] = molecular target: Gal(b1-3)GlcNAc6S
# How it was run: as §1
# [18] = molecular target: Gal(b1-3)[Fuc(a1-4)]GlcNAc
# How it was run: as §1
# [19] = molecular target: Gal(b1-3)[Fuc(a1-4)]GlcNAc(b1-2)Man
# How it was run: as §1
# [20] = molecular target: Gal(b1-3)[Fuc(a1-4)]GlcNAc(b1-2)Man(a1-3)[Gal(b1-3)[Fuc(a1-4)]GlcNAc(b1-2)Man(a1-6)]Man(b1-4)GlcNAc(b1-4)[Fuc(a1-6)]GlcNAc
# How it was run: as §1
# [21] = molecular target: Gal(b1-3)[Fuc(a1-4)]GlcNAc(b1-3)Gal(b1-3)[Fuc(a1-4)]GlcNAc
# How it was run: as §1
# [22] = molecular target: Gal(b1-3)[Fuc(a1-4)]GlcNAc(b1-3)Gal(b1-4)[Fuc(a1-3)]GlcNAc
# How it was run: as §1
# [23] = molecular target: Gal(b1-3)[Fuc(a1-4)]GlcNAc(b1-6)GalNAc
# How it was run: as §1
# [24] = molecular target: Gal(b1-3)[GlcNAc(b1-6)]GalNAc
# How it was run: as §1
# [25] = molecular target: Gal(b1-3)[Neu5Ac(a2-6)]GalNAc
# How it was run: as §1
# [26] = molecular target: Gal(b1-3)[Neu5Ac(a2-6)]GlcNAc(b1-4)Gal(b1-4)Glc
# How it was run: as §1
# [27] = molecular target: Gal(b1-3)[Neu5Ac(b2-6)]GalNAc
# How it was run: as §1
# [28] = molecular target: Gal(b1-4)Gal
# How it was run: as §1
# [29] = molecular target: Gal(b1-4)GalNAc(a1-3)[Fuc(a1-2)]Gal(b1-4)GlcNAc
# How it was run: as §1
# [30] = molecular target: Gal(b1-4)GalNAc(b1-3)[Fuc(a1-2)]Gal(b1-4)GlcNAc
# How it was run: as §1
# [31] = molecular target: Gal(b1-4)Glc
# How it was run: as §1
# [32] = molecular target: Gal(b1-4)Glc6S
# How it was run: as §1
# [33] = molecular target: Gal(b1-4)GlcNAc
# How it was run: as §1
# [34] = molecular target: Gal(b1-4)GlcNAc(a1-6)Gal(b1-4)GlcNAc
# How it was run: as §1
# [35] = molecular target: Gal(b1-4)GlcNAc(b1-2)Man
# How it was run: as §1
# [36] = molecular target: Gal(b1-4)GlcNAc(b1-2)Man(a1-3)Man(b1-4)GlcNAc(b1-4)GlcNAc
# How it was run: as §1
# [37] = molecular target: Gal(b1-4)GlcNAc(b1-2)Man(a1-3)[Gal(b1-4)GlcNAc(b1-2)Man(a1-6)]Man(b1-4)GlcNAc(b1-4)GlcNAc
# How it was run: as §1
# [38] = molecular target: Gal(b1-4)GlcNAc(b1-2)Man(a1-3)[Gal(b1-4)GlcNAc(b1-2)Man(a1-6)]Man(b1-4)GlcNAc(b1-4)[Fuc(a1-6)]GlcNAc
# How it was run: as §1
# [39] = molecular target: Gal(b1-4)GlcNAc(b1-2)Man(a1-3)[Gal(b1-4)GlcNAc(b1-2)Man(a1-6)][Gal(b1-4)GlcNAc(b1-4)]Man(b1-4)GlcNAc(b1-4)[Fuc(a1-6)]GlcNAc
# How it was run: as §1
# [40] = molecular target: Gal(b1-4)GlcNAc(b1-2)Man(a1-3)[Gal(b1-4)GlcNAc(b1-2)Man(a1-6)][GlcNAc(b1-4)]Man(b1-4)GlcNAc(b1-4)[Fuc(a1-6)]GlcNAc
# How it was run: as §1
# [41] = molecular target: Gal(b1-4)GlcNAc(b1-2)Man(a1-3)[GlcNAc(b1-2)Man(a1-6)]Man(b1-4)GlcNAc(b1-4)GlcNAc
# How it was run: as §1
# [42] = molecular target: Gal(b1-4)GlcNAc(b1-2)Man(a1-3)[GlcNAc(b1-4)][Gal(b1-4)GlcNAc(b1-2)Man(a1-6)]Man(b1-4)GlcNAc(b1-4)GlcNAc
# How it was run: as §1
# [43] = molecular target: Gal(b1-4)GlcNAc(b1-2)Man(a1-3)[Man(a1-6)]Man(b1-4)GlcNAc(b1-4)GlcNAc
# How it was run: as §1
# [44] = molecular target: Gal(b1-4)GlcNAc(b1-2)Man(a1-6)Man(b1-4)GlcNAc(b1-4)GlcNAc
# How it was run: as §1
# [45] = molecular target: Gal(b1-4)GlcNAc(b1-2)Man(a1-6)[GlcNAc(b1-2)Man(a1-3)]Man(b1-4)GlcNAc(b1-4)GlcNAc
# How it was run: as §1
binder,measurement,setting,value
Lb MiSSP8 (Laccaria bicolor) (protein) MYFHTLFACATLMLITTAHASPTVINSLDSRKADLNGDVEARHAADWRRDSDWRRDSDWRRDSDWRRDSD,glycan array binding signal (z-score),[1],0.326
same,glycan array binding signal (z-score),[2],1.29
same,glycan array binding signal (z-score),[3],0.54
same,glycan array binding signal (z-score),[4],-0.778
same,glycan array binding signal (z-score),[5],-0.26
same,glycan array binding signal (z-score),[6],-0.654
same,glycan array binding signal (z-score),[7],-0.523
same,glycan array binding signal (z-score),[8],0.54
same,glycan array binding signal (z-score),[9],0.982
same,glycan array binding signal (z-score),[10],-0.088
same,glycan array binding signal (z-score),[11],-0.682
same,glycan array binding signal (z-score),[12],-0.53
same,glycan array binding signal (z-score),[13],-0.958
same,glycan array binding signal (z-score),[14],-0.136
same,glycan array binding signal (z-score),[15],-0.619
same,glycan array binding signal (z-score),[16],-0.454
same,glycan array binding signal (z-score),[17],-0.468
same,glycan array binding signal (z-score),[18],-0.195
same,glycan array binding signal (z-score),[19],0.471
same,glycan array binding signal (z-score),[20],2.19
same,glycan array binding signal (z-score),[21],-0.419
same,glycan array binding signal (z-score),[22],-0.309
same,glycan array binding signal (z-score),[23],-0.543
same,glycan array binding signal (z-score),[24],-0.447
same,glycan array binding signal (z-score),[25],0.447
same,glycan array binding signal (z-score),[26],-0.716
same,glycan array binding signal (z-score),[27],-0.799
same,glycan array binding signal (z-score),[28],-3.19
same,glycan array binding signal (z-score),[29],-0.73
same,glycan array binding signal (z-score),[30],-0.916
same,glycan array binding signal (z-score),[31],0.702
same,glycan array binding signal (z-score),[32],-0.84
same,glycan array binding signal (z-score),[33],0.087
same,glycan array binding signal (z-score),[34],-0.633
same,glycan array binding signal (z-score),[35],0.437
same,glycan array binding signal (z-score),[36],-0.716
same,glycan array binding signal (z-score),[37],-0.619
same,glycan array binding signal (z-score),[38],0.526
same,glycan array binding signal (z-score),[39],-0.599
same,glycan array binding signal (z-score),[40],-0.751
same,glycan array binding signal (z-score),[41],-0.709
same,glycan array binding signal (z-score),[42],-0.026
same,glycan array binding signal (z-score),[43],2.3
same,glycan array binding signal (z-score),[44],-0.751
same,glycan array binding signal (z-score),[45],-0.578

# Three records picked at random from the list so far:
binder,measurement,setting,value
Lb MiSSP8 (Laccaria bicolor) (protein) MYFHTLFACATLMLITTAHASPTVINSLDSRKADLNGDVEARHAADWRRDSDWRRDSDWRRDSDWRRDSD,glycan array binding signal (z-score),[42],-0.026
same,glycan array binding signal (z-score),[5],-0.26
same,glycan array binding signal (z-score),[43],2.3
